# The supplement of paper PMC8728848
# The other results are listed elsewhere or left out.
# B1: Epa2 (Candida glabrata) (protein)
# chain: MGSSHHHHHHSSGLVPRGSHMASSKDPTSFPMGCSPQVLKTQPGLAVKLYSYGHPVPGCAYNTYQYPDFPRSGYKKERKLADITGVNGRIDIDLKPNDPCRVLSGNLPSNYNYQNTLTYTNFTMILYGYFQPKVTGYHTFNLEADDLLFMNLGAGNAFDCCRAESTLDNFGNYQSYSIWGTDKATADLTVFLVSGIYYPIRLFYVNRDNNAVLDFSFSTEFNKEIIHDFTSYFFSASDEEQCPGNI
# Tests used:
# Assay in all cases: glycan array binding signal (z-score within array); higher = stronger binding
# Settings in all cases: glycan notation: IUPAC condensed, linker removed
# [1] = target: Neu5Ac(a2-3)Gal(b1-4)GlcNAc(b1-3)[Neu5Ac(a2-3)Gal(b1-4)GlcNAc(b1-6)]GalNAc
# How it was run: (§1)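 Columns mapping to the same glycan were averaged after glycan names were converted to IUPAC-condensed notation. The data come from 3228 arrays in the Consortium for Functional Glycomics database, limited to those with an available protein sequence. Binding is reported as a within-array Z-score averaged across arrays of one protein sequence and across linkers.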
# [2] = target: Neu5Ac(a2-3)Gal(b1-4)GlcNAc(b1-6)GalNAc
# How it was run: as §1
# [3] = target: Neu5Ac(a2-3)Gal(b1-4)GlcNAc(b1-6)[Gal(b1-3)]GalNAc
# How it was run: as §1
# [4] = target: Neu5Ac(a2-3)Gal(b1-4)GlcNAc(b1-6)[Neu5Ac(a2-3)Gal(b1-3)]GalNAc
# How it was run: as §1
# [5] = target: Neu5Ac(a2-3)Gal(b1-4)GlcNAc6S
# How it was run: as §1
# [6] = target: Neu5Ac(a2-3)Gal(b1-4)[Fuc(a1-3)]GlcNAc
# How it was run: as §1
# [7] = target: Neu5Ac(a2-3)Gal(b1-4)[Fuc(a1-3)]GlcNAc(b1-2)Man
# How it was run: as §1
# [8] = target: Neu5Ac(a2-3)Gal(b1-4)[Fuc(a1-3)]GlcNAc(b1-3)Gal
# How it was run: as §1
# [9] = target: Neu5Ac(a2-3)Gal(b1-4)[Fuc(a1-3)]GlcNAc(b1-3)Gal(b1-4)GlcNAc
# How it was run: as §1
# [10] = target: Neu5Ac(a2-3)Gal(b1-4)[Fuc(a1-3)]GlcNAc(b1-3)Gal(b1-4)[Fuc(a1-3)]GlcNAc(b1-3)Gal(b1-4)[Fuc(a1-3)]GlcNAc
# How it was run: as §1
# [11] = target: Neu5Ac(a2-3)Gal(b1-4)[Fuc(a1-3)]GlcNAc(b1-3)GalNAc
# How it was run: as §1
# [12] = target: Neu5Ac(a2-3)Gal(b1-4)[Fuc(a1-3)]GlcNAc(b1-6)[Gal(b1-3)]GalNAc
# How it was run: as §1
# [13] = target: Neu5Ac(a2-3)Gal(b1-4)[Fuc(a1-3)]GlcNAc(b1-6)[Neu5Ac(a2-3)Gal(b1-3)]GalNAc
# How it was run: as §1
# [14] = target: Neu5Ac(a2-3)Gal(b1-4)[Fuc(a1-3)]GlcNAc6S
# How it was run: as §1
# [15] = target: Neu5Ac(a2-3)Gal6S(b1-4)GlcNAc
# How it was run: as §1
# [16] = target: Neu5Ac(a2-3)Gal6S(b1-4)[Fuc(a1-3)]GlcNAc
# How it was run: as §1
# [17] = target: Neu5Ac(a2-3)GalNAc
# How it was run: as §1
# [18] = target: Neu5Ac(a2-3)GalNAc(b1-4)GlcNAc
# How it was run: as §1
# [19] = target: Neu5Ac(a2-3)[GalNAc(b1-4)]Gal(b1-4)Glc
# How it was run: as §1
# [20] = target: Neu5Ac(a2-3)[GalNAc(b1-4)]Gal(b1-4)GlcNAc
# How it was run: as §1
# [21] = target: Neu5Ac(a2-3)[GalNAc(b1-4)]Gal(b1-4)GlcNAc(b1-3)GalNAc
# How it was run: as §1
# [22] = target: Neu5Ac(a2-3)[Neu5Ac(a2-6)]GalNAc
# How it was run: as §1
# [23] = target: Neu5Ac(a2-6)Gal
# How it was run: as §1
# [24] = target: Neu5Ac(a2-6)Gal(b1-3)GlcNAc(b1-3)[Gal(b1-4)GlcNAc(b1-6)]Gal(b1-4)Glc
# How it was run: as §1
# [25] = target: Neu5Ac(a2-6)Gal(b1-4)Glc
# How it was run: as §1
# [26] = target: Neu5Ac(a2-6)Gal(b1-4)GlcNAc
# How it was run: as §1
# [27] = target: Neu5Ac(a2-6)Gal(b1-4)GlcNAc(b1-2)Man
# How it was run: as §1
# [28] = target: Neu5Ac(a2-6)Gal(b1-4)GlcNAc(b1-2)Man(a1-3)Man(b1-4)GlcNAc(b1-4)GlcNAc
# How it was run: as §1
# [29] = target: Neu5Ac(a2-6)Gal(b1-4)GlcNAc(b1-2)Man(a1-3)[Gal(b1-4)GlcNAc(b1-2)Man(a1-6)]Man(b1-4)GlcNAc(b1-4)GlcNAc
# How it was run: as §1
# [30] = target: Neu5Ac(a2-6)Gal(b1-4)GlcNAc(b1-2)Man(a1-3)[GlcNAc(b1-2)Man(a1-6)]Man(b1-4)GlcNAc(b1-4)GlcNAc
# How it was run: as §1
# [31] = target: Neu5Ac(a2-6)Gal(b1-4)GlcNAc(b1-2)Man(a1-3)[GlcNAc(b1-4)][Neu5Ac(a2-6)Gal(b1-4)GlcNAc(b1-2)Man(a1-6)]Man(b1-4)GlcNAc(b1-4)GlcNAc
# How it was run: as §1
# [32] = target: Neu5Ac(a2-6)Gal(b1-4)GlcNAc(b1-2)Man(a1-3)[Man(a1-6)]Man(b1-4)GlcNAc(b1-4)GlcNAc
# How it was run: as §1
# [33] = target: Neu5Ac(a2-6)Gal(b1-4)GlcNAc(b1-2)Man(a1-3)[Neu5Ac(a2-3)Gal(b1-4)GlcNAc(b1-2)Man(a1-6)]Man(b1-4)GlcNAc(b1-4)GlcNAc
# How it was run: as §1
# [34] = target: Neu5Ac(a2-6)Gal(b1-4)GlcNAc(b1-2)Man(a1-3)[Neu5Ac(a2-6)Gal(b1-4)GlcNAc(b1-2)Man(a1-6)]Man(b1-4)GlcNAc(b1-4)GlcNAc
# How it was run: as §1
# [35] = target: Neu5Ac(a2-6)Gal(b1-4)GlcNAc(b1-2)Man(a1-3)[Neu5Ac(a2-6)Gal(b1-4)GlcNAc(b1-2)Man(a1-6)]Man(b1-4)GlcNAc(b1-4)[Fuc(a1-6)]GlcNAc
# How it was run: as §1
# [36] = target: Neu5Ac(a2-6)Gal(b1-4)GlcNAc(b1-2)Man(a1-6)Man(b1-4)GlcNAc(b1-4)GlcNAc
# How it was run: as §1
# [37] = target: Neu5Ac(a2-6)Gal(b1-4)GlcNAc(b1-2)Man(a1-6)[Gal(b1-4)GlcNAc(b1-2)Man(a1-3)]Man(b1-4)GlcNAc(b1-4)GlcNAc
# How it was run: as §1
# [38] = target: Neu5Ac(a2-6)Gal(b1-4)GlcNAc(b1-2)Man(a1-6)[GlcNAc(b1-2)Man(a1-3)]Man(b1-4)GlcNAc(b1-4)GlcNAc
# How it was run: as §1
# [39] = target: Neu5Ac(a2-6)Gal(b1-4)GlcNAc(b1-2)Man(a1-6)[Man(a1-3)]Man(b1-4)GlcNAc(b1-4)GlcNAc
# How it was run: as §1
# [40] = target: Neu5Ac(a2-6)Gal(b1-4)GlcNAc(b1-2)[Neu5Ac(a2-6)Gal(b1-4)GlcNAc(b1-4)]Man(a1-3)[GlcNAc(b1-4)][Neu5Ac(a2-6)Gal(b1-4)GlcNAc(b1-2)[Neu5Ac(a2-6)Gal(b1-4)GlcNAc(b1-6)]Man(a1-6)]Man(b1-4)GlcNAc(b1-4)GlcNAc
# How it was run: as §1
# [41] = target: Neu5Ac(a2-6)Gal(b1-4)GlcNAc(b1-2)[Neu5Ac(a2-6)Gal(b1-4)GlcNAc(b1-4)]Man(a1-3)[GlcNAc(b1-4)][Neu5Ac(a2-6)Gal(b1-4)GlcNAc(b1-4)Man(a1-6)]Man(b1-4)GlcNAc(b1-4)GlcNAc
# How it was run: as §1
# [42] = target: Neu5Ac(a2-6)Gal(b1-4)GlcNAc(b1-2)[Neu5Ac(a2-6)Gal(b1-4)GlcNAc(b1-6)]Man(a1-6)[Neu5Ac(a2-6)Gal(b1-4)GlcNAc(b1-2)Man(a1-3)][GlcNAc(b1-4)]Man(b1-4)GlcNAc(b1-4)GlcNAc
# How it was run: as §1
# [43] = target: Neu5Ac(a2-6)Gal(b1-4)GlcNAc(b1-3)Gal(b1-3)GlcNAc
# How it was run: as §1
# [44] = target: Neu5Ac(a2-6)Gal(b1-4)GlcNAc(b1-3)Gal(b1-4)GlcNAc
# How it was run: as §1
# [45] = target: Neu5Ac(a2-6)Gal(b1-4)GlcNAc(b1-3)Gal(b1-4)GlcNAc(b1-2)Man(a1-3)[Neu5Ac(a2-6)Gal(b1-4)GlcNAc(b1-3)Gal(b1-4)GlcNAc(b1-2)Man(a1-6)]GalNAc
# How it was run: as §1
# [46] = target: Neu5Ac(a2-6)Gal(b1-4)GlcNAc(b1-3)Gal(b1-4)GlcNAc(b1-3)Gal(b1-4)GlcNAc
# How it was run: as §1
binder,measurement,setting,value
B1,glycan array binding signal (z-score),[1],3.03
same,glycan array binding signal (z-score),[2],-0.308
same,glycan array binding signal (z-score),[3],0.628
same,glycan array binding signal (z-score),[4],-1.19
same,glycan array binding signal (z-score),[5],-0.184
same,glycan array binding signal (z-score),[6],-0.21
same,glycan array binding signal (z-score),[7],-0.325
same,glycan array binding signal (z-score),[8],-0.875
same,glycan array binding signal (z-score),[9],0.49
same,glycan array binding signal (z-score),[10],-0.083
same,glycan array binding signal (z-score),[11],1.05
same,glycan array binding signal (z-score),[12],0.956
same,glycan array binding signal (z-score),[13],0.699
same,glycan array binding signal (z-score),[14],-0.281
same,glycan array binding signal (z-score),[15],-0.412
same,glycan array binding signal (z-score),[16],-0.905
same,glycan array binding signal (z-score),[17],-0.09
same,glycan array binding signal (z-score),[18],-0.275
same,glycan array binding signal (z-score),[19],-0.476
same,glycan array binding signal (z-score),[20],-0.651
same,glycan array binding signal (z-score),[21],0.939
same,glycan array binding signal (z-score),[22],0.098
same,glycan array binding signal (z-score),[23],0.28
same,glycan array binding signal (z-score),[24],-0.53
same,glycan array binding signal (z-score),[25],-0.322
same,glycan array binding signal (z-score),[26],-0.329
same,glycan array binding signal (z-score),[27],-0.313
same,glycan array binding signal (z-score),[28],0.572
same,glycan array binding signal (z-score),[29],-0.418
same,glycan array binding signal (z-score),[30],-0.681
same,glycan array binding signal (z-score),[31],-0.794
same,glycan array binding signal (z-score),[32],-0.137
same,glycan array binding signal (z-score),[33],-0.821
same,glycan array binding signal (z-score),[34],0.254
same,glycan array binding signal (z-score),[35],-0.149
same,glycan array binding signal (z-score),[36],-0.441
same,glycan array binding signal (z-score),[37],-0.658
same,glycan array binding signal (z-score),[38],0.411
same,glycan array binding signal (z-score),[39],-0.983
same,glycan array binding signal (z-score),[40],-0.734
same,glycan array binding signal (z-score),[41],0.181
same,glycan array binding signal (z-score),[42],-0.44
same,glycan array binding signal (z-score),[43],-0.15
same,glycan array binding signal (z-score),[44],-0.467
same,glycan array binding signal (z-score),[45],0.897
same,glycan array binding signal (z-score),[46],0.69

# An excerpt of these results, with bars between the fields.
binder | measurement | setting | value
B1 | glycan array binding signal (z-score) | [2] | -0.308
same | glycan array binding signal (z-score) | [16] | -0.905
same | glycan array binding signal (z-score) | [28] | 0.572
same | glycan array binding signal (z-score) | [45] | 0.897
